According to PubChem BioAssay AID1487 (National Center for Advancing Translational Sciences (NCATS), 2009):
This is one part of the list. These are further read-outs of the screen, such as a control signal, another cell line or another target. No call is given for them. Most of these compounds were active or inconclusive in the main read-out, so they are no random draw. Potencies come from curve fits of mixed quality, noted in brackets.

Assay: qHTS Assay for Modulators of Lamin A Splicing
Conditions: HeLa LMNA splicing GFP/RFP minigene ratio, 48 h
How it was run: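 S3 HeLa stable clones carrying a lamin A-EGFP splicing minigene plus DsRed2 were seeded at 600 cells/well in Opti-MEM with 2% FBS, pin-dosed and incubated 48 h at 37°C. Acumen cytometry (488 nm) gave the GFP/RFP total-intensity ratio.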

[1] = measured here: GFP splicing reporter channel
[2] = measured here: RFP viability control channel

Row | Compound | AC50 [1] | AC50 [2]
1 | CCN1CCN(c2oc(-c3ccc(COc4ccccc4C)o3)nc2C#N)CC1 | 15.8 µM [rising, single point] | 14.1 µM [rising, single point]
2 | O=C(O)c1ccccc1Sc1c([N+](=O)[O-])cc(C(F)(F)F)cc1[N+](=O)[O-] | – | 0.158 µM [falling, full curve]
3 | Cc1ccc(OCc2nc3c4c(ncn3n2)-c2ccccc2CC42CCCC2)cc1 | – | 5.62 µM [rising, single point]
4 | COc1ccc(C)cc1NC(=O)c1ccc(CN2CCN(c3ccccc3)CC2)cc1 | 10 µM [rising, partial curve] | 20 µM [rising, single point]
5 | COc1ccc(Cn2ccc3nc(C)c(C(=O)Nc4cccc(SC)c4)cc3c2=O)cc1 | – | 11.2 µM [rising, single point]
6 | Oc1c(C(Nc2ccccn2)c2ccccc2F)ccc2cccnc12 (stereo not drawn) | – | 11.2 µM [rising, partial curve, poor fit]
7 | CCOC(=O)N1CCC(NC(=O)c2cc(C(=O)NCc3ccc(F)cc3)ccc2CO)CC1 | – | 35.5 µM [rising, single point]
8 | COCCn1c(=O)c(-c2ccccc2)nc2cnc(Oc3cccc(Cl)c3)nc21 | 12.6 µM [falling, partial curve] | –
9 | CCOC(=O)Cn1nc(C)c(NC(=O)c2ccc(Cl)c([N+](=O)[O-])c2)c1C | – | 0.631 µM [falling, partial curve, poor fit]
10 | CCCOc1ccc(-c2csc(N)n2)cc1[N+](=O)[O-] | – | 11.2 µM [rising, partial curve]
11 | Cc1cccc(N(C(=O)c2nsc(Cl)c2Cl)C(C(=O)NC2CCCC2)c2ccc(O)cc2)c1C (stereo not drawn) | – | 31.6 µM [rising, single point]
12 | O=C(NC(=S)NCC1CCCO1)c1cccc([N+](=O)[O-])c1 (stereo not drawn) | – | 0.00794 µM [rising, full curve, poor fit]
13 | Nc1cnn(Cc2ccc(F)cc2)c1 | – | 0.141 µM [rising, full curve, poor fit]
14 | COc1ccc(N=c2scc(-c3ccc(S(=O)(=O)N4CCOCC4)cc3)n2CCCO)cc1 | – | 11.2 µM [rising, partial curve]
15 | CC(=O)c1ccc(NS(=O)(=O)c2ccc3c(c2)NC(=O)CCS3)cc1 | 35.5 µM [rising, single point] | 35.5 µM [rising, single point]
16 | Nc1c2c(nc3ccc(Br)cc13)N(Cc1ccccc1)CC2 | 15.8 µM [rising, single point] | 11.2 µM [rising, partial curve, poor fit]
17 | Cc1cccc(S(=O)(=O)c2cn(Cc3ccccc3)c3cc(N4CCCCC4)c(F)cc3c2=O)c1 | 12.6 µM [rising, single point] | –
18 | CCOC(=O)NC(=O)C(=CNNc1ncc(C(F)(F)F)cc1Cl)C(=O)NC(=O)OCC | 3.55 µM [falling, single point] | 5.62 µM [falling, single point]

Row | Compound | AC50 [1] | AC50 [2]
19 | COc1ccc(-c2nc3sc(CCNC(=O)c4ccc(Br)o4)c(C)n3n2)cc1 | – | 15.8 µM [rising, single point]
20 | COc1cc(NC(=O)C2=C(N3CCOCC3)/C(=C\c3ccc(N(C)C)cc3)CCC2)cc(OC)c1OC | 7.08 µM [rising, partial curve] | 7.08 µM [rising, partial curve]
21 | CC1=C/C(=N\S(=O)(=O)c2ccccc2)C(C(C)C)=CC1=O | – | 31.6 µM [rising, partial curve]
22 | COc1cccc(OC)c1C(=O)Oc1ccc2c(c1)O/C(=C\c1ccncc1)C2=O | – | 35.5 µM [falling, single point]
23 | O=C(c1cccc(S(=O)(=O)N2CCc3ccccc32)c1)N1CCN(c2ccccn2)CC1 | 5.62 µM [falling, single point] | 20 µM [rising, partial curve, poor fit]
24 | COC(=O)c1ccc(NC(=O)C(=O)N2CCN(C(=S)Nc3ccc(OC)cc3)CC2)cc1 | – | 14.1 µM [rising, single point]
25 | O=C1NCCN(Cc2ccc(Cl)c(F)c2)C1CC(=O)N1CCc2ccccc2C1 (stereo not drawn) | 0.00501 µM [falling, full curve, poor fit] | –
26 | O=C1c2cccc3cccc(c23)C(=O)N1CC1CCN(CC(O)COCc2ccc3c(c2)OCO3)CC1 (stereo not drawn) | 35.5 µM [rising, single point] | 35.5 µM [rising, single point]
27 | O=C(COC(=O)C1CCN(S(=O)(=O)c2ccccc2C(F)(F)F)CC1)NCc1ccc(F)cc1 | – | 0.01 µM [falling, full curve, poor fit]
28 | c1cn(-c2ncnc3ccc(-c4ccoc4)cc23)cn1 | 2.82 µM [falling, full curve] | 3.55 µM [falling, full curve]
29 | COc1cc(C2C(Oc3ccccc3C)C(=O)N2Cc2ccc(F)cc2)cc(OC)c1OC (stereo not drawn) | – | 35.5 µM [rising, single point]
30 | CCn1nc(C)c(NS(=O)(=O)c2ccc(C)cc2)c1C | – | 11.2 µM [rising, partial curve]
31 | CC(NC(=O)CSc1nc2c(c(C(F)(F)F)n1)CCc1ccccc1-2)c1ccccc1 (stereo not drawn) | 17.8 µM [rising, single point] | 22.4 µM [rising, partial curve]
32 | OCCNC(=S)Nc1ccc(Cl)c(Cl)c1 | 35.5 µM [rising, single point] | 22.4 µM [rising, single point]
33 | Cc1ccc(Cl)cc1NC(=O)c1cc2ccccc2cc1O | 1.26 µM [falling, single point] | 5.62 µM [rising, single point]
34 | Cc1c(NC(=O)c2cccs2)cccc1-c1nc2ccccc2s1 | – | 0.0355 µM [rising, full curve, poor fit]
35 | O=C(NCc1ccc(N2CCCC2=O)cc1)c1ccc(F)cc1 | 2 µM [rising, partial curve, poor fit] | 2.82 µM [rising, partial curve, poor fit]

Sorted by count of non-hydrogen atoms (ascending): 10 of the compounds above
Row | Compound | AC50 [1] | AC50 [2]
13 | Nc1cnn(Cc2ccc(F)cc2)c1 | – | 0.141 µM [rising, full curve, poor fit]
32 | OCCNC(=S)Nc1ccc(Cl)c(Cl)c1 | 35.5 µM [rising, single point] | 22.4 µM [rising, single point]
30 | CCn1nc(C)c(NS(=O)(=O)c2ccc(C)cc2)c1C | – | 11.2 µM [rising, partial curve]
12 | O=C(NC(=S)NCC1CCCO1)c1cccc([N+](=O)[O-])c1 (stereo not drawn) | – | 0.00794 µM [rising, full curve, poor fit]
35 | O=C(NCc1ccc(N2CCCC2=O)cc1)c1ccc(F)cc1 | 2 µM [rising, partial curve, poor fit] | 2.82 µM [rising, partial curve, poor fit]
6 | Oc1c(C(Nc2ccccn2)c2ccccc2F)ccc2cccnc12 (stereo not drawn) | – | 11.2 µM [rising, partial curve, poor fit]
3 | Cc1ccc(OCc2nc3c4c(ncn3n2)-c2ccccc2CC42CCCC2)cc1 | – | 5.62 µM [rising, single point]
24 | COC(=O)c1ccc(NC(=O)C(=O)N2CCN(C(=S)Nc3ccc(OC)cc3)CC2)cc1 | – | 14.1 µM [rising, single point]
29 | COc1cc(C2C(Oc3ccccc3C)C(=O)N2Cc2ccc(F)cc2)cc(OC)c1OC (stereo not drawn) | – | 35.5 µM [rising, single point]
17 | Cc1cccc(S(=O)(=O)c2cn(Cc3ccccc3)c3cc(N4CCCCC4)c(F)cc3c2=O)c1 | 12.6 µM [rising, single point] | –
